# Literature values in US11395824B2, “5-HT2C receptor agonists and compositions and methods of use” (Arena Pharmaceuticals, Inc., priority 2015, dated 2022).
# At least one compound was matched to its structure with a doubt left.
# Conditions: add on treatment, non-depressed patients with poorly controlled epilepsy; cited from earlier work
smiles,measurement,value
CN(C)CCCC1(c2ccc(F)cc2)OCc2cc(C#N)ccc21 (stereo not shown) [citalopram],drop of median seizure frequency,55.6%
